This note sets out measurements from publication PMC5025085.

Amino acid sequences for entries named in this document (tags omitted). A change or cut given only in a name is not applied to a line headed by its entry. Residues count along the entry.
UniProt P16473, residues 21-764: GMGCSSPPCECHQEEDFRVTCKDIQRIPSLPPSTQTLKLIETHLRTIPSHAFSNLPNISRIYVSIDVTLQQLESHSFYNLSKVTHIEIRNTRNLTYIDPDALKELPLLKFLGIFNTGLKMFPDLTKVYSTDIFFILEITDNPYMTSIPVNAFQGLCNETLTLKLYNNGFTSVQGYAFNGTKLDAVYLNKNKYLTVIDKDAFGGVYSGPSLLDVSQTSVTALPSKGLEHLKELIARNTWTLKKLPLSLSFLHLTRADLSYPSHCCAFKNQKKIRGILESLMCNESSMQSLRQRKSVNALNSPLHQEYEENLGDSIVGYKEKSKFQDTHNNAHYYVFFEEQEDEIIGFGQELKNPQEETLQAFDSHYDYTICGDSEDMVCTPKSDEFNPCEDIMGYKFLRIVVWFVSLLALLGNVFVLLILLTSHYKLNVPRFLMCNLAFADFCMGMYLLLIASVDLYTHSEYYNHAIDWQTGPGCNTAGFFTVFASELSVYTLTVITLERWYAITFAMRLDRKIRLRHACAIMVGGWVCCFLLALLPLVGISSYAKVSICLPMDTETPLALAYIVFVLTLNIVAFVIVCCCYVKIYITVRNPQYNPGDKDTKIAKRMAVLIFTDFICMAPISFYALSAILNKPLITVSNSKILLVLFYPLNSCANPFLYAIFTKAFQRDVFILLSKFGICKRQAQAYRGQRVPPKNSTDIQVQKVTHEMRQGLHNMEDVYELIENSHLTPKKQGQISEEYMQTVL
UniProt P25942, residues 21-277: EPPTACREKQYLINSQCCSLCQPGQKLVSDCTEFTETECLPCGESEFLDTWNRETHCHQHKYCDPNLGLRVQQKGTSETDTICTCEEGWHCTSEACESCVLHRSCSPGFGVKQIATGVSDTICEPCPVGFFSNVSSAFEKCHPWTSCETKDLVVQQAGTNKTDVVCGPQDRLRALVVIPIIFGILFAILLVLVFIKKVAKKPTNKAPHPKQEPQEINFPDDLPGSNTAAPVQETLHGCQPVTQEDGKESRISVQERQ
UniProt P08069: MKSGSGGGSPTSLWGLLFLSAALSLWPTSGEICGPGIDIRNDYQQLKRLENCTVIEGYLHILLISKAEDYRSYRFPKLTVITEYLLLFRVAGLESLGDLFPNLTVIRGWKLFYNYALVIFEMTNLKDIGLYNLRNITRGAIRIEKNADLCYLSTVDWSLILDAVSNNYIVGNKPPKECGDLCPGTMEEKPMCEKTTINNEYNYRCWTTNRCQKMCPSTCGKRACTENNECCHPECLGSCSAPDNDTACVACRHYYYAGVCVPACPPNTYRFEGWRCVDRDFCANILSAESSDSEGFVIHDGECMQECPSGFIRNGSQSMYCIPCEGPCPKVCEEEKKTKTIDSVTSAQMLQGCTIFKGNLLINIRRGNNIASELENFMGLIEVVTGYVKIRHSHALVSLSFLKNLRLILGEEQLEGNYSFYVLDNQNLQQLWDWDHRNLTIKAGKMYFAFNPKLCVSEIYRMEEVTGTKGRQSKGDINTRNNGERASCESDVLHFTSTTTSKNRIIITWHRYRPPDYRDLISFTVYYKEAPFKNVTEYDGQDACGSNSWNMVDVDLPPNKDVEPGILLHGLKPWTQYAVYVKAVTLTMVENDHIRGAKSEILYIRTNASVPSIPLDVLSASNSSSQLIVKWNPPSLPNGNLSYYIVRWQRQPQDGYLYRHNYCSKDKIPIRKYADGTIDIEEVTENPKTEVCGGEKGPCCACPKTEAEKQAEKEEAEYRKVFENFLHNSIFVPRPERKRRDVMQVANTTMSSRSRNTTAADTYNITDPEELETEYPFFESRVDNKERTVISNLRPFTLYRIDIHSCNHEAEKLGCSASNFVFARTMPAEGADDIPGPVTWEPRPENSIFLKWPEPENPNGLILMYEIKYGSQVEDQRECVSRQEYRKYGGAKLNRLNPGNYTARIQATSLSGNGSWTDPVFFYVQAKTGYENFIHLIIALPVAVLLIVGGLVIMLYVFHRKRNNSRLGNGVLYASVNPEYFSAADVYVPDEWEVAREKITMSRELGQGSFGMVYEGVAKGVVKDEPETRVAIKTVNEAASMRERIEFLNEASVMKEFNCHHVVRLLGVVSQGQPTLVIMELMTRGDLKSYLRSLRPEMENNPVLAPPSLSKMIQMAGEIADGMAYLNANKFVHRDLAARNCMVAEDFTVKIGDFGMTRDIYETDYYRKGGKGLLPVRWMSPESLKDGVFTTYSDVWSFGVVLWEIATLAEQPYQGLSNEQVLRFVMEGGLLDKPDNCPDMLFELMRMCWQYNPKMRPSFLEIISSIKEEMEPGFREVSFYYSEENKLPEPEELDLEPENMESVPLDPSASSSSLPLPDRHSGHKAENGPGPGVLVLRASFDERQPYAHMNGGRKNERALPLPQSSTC

These are yes or no findings as the source states them, for the method shown. In cells and extracts the contact can be indirect. Some entries that bind do so weakly or less than the wild type.

In assay [1] the target is TSH receptor (human (endogenous in fibrocytes)) (UniProt P16473). Put plainly: co-IP; RIPA extract of cultured fibrocytes (approx. 0.5 mg protein) incubated at 4 °C with protein A agarose beads coupled with anti-CD40 or anti-TSHR antibody; Western blot for TSHR and CD40. A general note: In western blotting, separated proteins are transferred to a membrane and probed.
Assay [2] has as its target CD40 (human (endogenous in fibrocytes)) (UniProt P25942). The assay is described as above.
For assay [3] the target is unchanged. As to the kind of experiment: co-IP; pulldown assays with antibodies against CD40 and the α and β subunits of IGF-1R; told only in the discussion, no data shown, cells not given.

Regarding “CD40 (from UniProt P25942 21-277) (receptor)”, the binding entry in assay [1] was “binds”.
On to “TSH receptor (from UniProt P16473 21-764)”, for which, in assay [2], the binding result is listed as “binds”.
For “insulin-like growth factor 1 receptor (from UniProt P08069 31-736; P08069 741-1367)”, in assay [3], the binding entry is “no binding”.
